# This is one part of the list.
# Assay: GCN4-lacZ reporter reduction in eIF2B-epsilon mutant yeast, primary screen, S. cerevisiae, eIF2B-epsilon R284H, Beta-Glo luminescence (AID 688)
# Details: measured here: mutant yeast growth, toxicity, concentration not given here
row,SMILES,growth inhibition [%]
1,N#CC1(Nc2ccccc2)CCN(CCc2ccccc2)CC1,-14.8
2,N/C(=N\O)c1c(N)no[n+]1[O-],-7.41
3,c1ccc(CN2CCC(Nc3ccccc3)CC2)cc1,6.06
4,CCC(CO)(C(=O)OC1CN2CCC1CC2)c1ccccc1 (centres undefined),15.2
